PubChem BioAssay AID652243, Drosophila RNAi Screening Center, 2013
Screen: 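Knock-downs that decrease or increase androgen receptor reporter signal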 (primary screen). System: Drosophila S2R+ cells. Knock-down reagent: long dsRNA against Drosophila genes. Time to read-out: 72 h (48 h, then 24 h hormone). Treatment: synthetic androgen R1881 at 10 nM for 24 h. Read-out: 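Firefly light from an androgen-responsive reporter and Renilla control light per well, raw and unnormalised, for each of two replicates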. Direction: firefly reporter light: higher = more light from androgen-responsive reporter; Renilla control light: higher = more constitutive control signal (cell number, transfection). Hit rule: 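Across duplicate plates, a knock-down whose log firefly/Renilla ratio shifted a set fold down or up from the GFP/LacZ control mean was a hit; the downward cut appears as both 1.5 and 3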. Meaning of the calls: active = hit: reporter lowered or raised; inactive = no hit.
The deposit covers about 24,000 reagents; below is a random part of those that have a named target and a result. Of all reagents, 246 (1%) got an active call. 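Plates not normalised; calls are printed but the firefly/Renilla ratio behind them is not deposited; fold cut for lowering reported inconsistently.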 Raw values vary from plate to plate and are shown uncorrected. A plus sign joins genes that one reagent is predicted to hit. Not stated in the record: the amount of reagent.

The first 5 entries, to show the layout:
| Target gene | amplicon | firefly reporter light, replicate 1 | firefly reporter light, replicate 2 | Renilla control light, replicate 1 | Renilla control light, replicate 2 | activity call |
| --- | --- | --- | --- | --- | --- | --- |
| CG34287 (GeneID 5740126) | DRSC38668 | 7.59e5 | 6.69e5 | 1.68e6 | 1.89e6 | inactive |
| Ccp84Ad (GeneID 40822) | DRSC12589 | 26427 | 27491 | 1.54e6 | 1.17e6 | inactive |
| Ccp84Ad (GeneID 40822) | DRSC22854 | 5.48e5 | 9.09e5 | 1.22e6 | 1.64e6 | inactive |
| CG8541 (GeneID 38838) | DRSC10989 | 1.25e5 | 1.58e5 | 1.79e6 | 1.68e6 | inactive |
| CG8541 (GeneID 38838) | DRSC25235 | 6.63e5 | 8.15e5 | 1.48e6 | 1.36e6 | inactive |

Results, repeating the preview:
| Target gene | amplicon | firefly reporter light, replicate 1 | firefly reporter light, replicate 2 | Renilla control light, replicate 1 | Renilla control light, replicate 2 | activity call |
| --- | --- | --- | --- | --- | --- | --- |
| CG34287 (GeneID 5740126) | DRSC38668 | 7.59e5 | 6.69e5 | 1.68e6 | 1.89e6 | inactive |
| Ccp84Ad (GeneID 40822) | DRSC12589 | 26427 | 27491 | 1.54e6 | 1.17e6 | inactive |
| Ccp84Ad (GeneID 40822) | DRSC22854 | 5.48e5 | 9.09e5 | 1.22e6 | 1.64e6 | inactive |
| CG8541 (GeneID 38838) | DRSC10989 | 1.25e5 | 1.58e5 | 1.79e6 | 1.68e6 | inactive |
| CG8541 (GeneID 38838) | DRSC25235 | 6.63e5 | 8.15e5 | 1.48e6 | 1.36e6 | inactive |
| tbc (GeneID 318059) | DRSC20540 | 20872 | 10874 | 1.59e5 | 89933 | active |
| tbc (GeneID 318059) | DRSC23084 | 6.54e5 | 9.59e5 | 9.82e5 | 1.39e6 | inactive |
| tbc (GeneID 318059) | DRSC29058 | 3.64e5 | 4.29e5 | 1.12e6 | 9.62e5 | inactive |
| CG9663 (GeneID 33541) | DRSC00724 | 6.32e5 | 8.02e5 | 2.20e6 | 1.58e6 | inactive |
| otk2 (GeneID 36284) | DRSC07303 | 2.83e5 | 2.72e5 | 1.66e6 | 1.57e6 | inactive |
| Obp57c + Obp57b | DRSC21914 | 6.49e5 | 7.24e5 | 2.26e6 | 1.28e6 | inactive |
| Obp57c + Obp57b | DRSC24245 | 4.46e5 | 3.24e5 | 4.73e5 | 6.24e5 | inactive |
| Gdap2 (GeneID 59173) | DRSC06789 | 5.16e5 | 4.46e5 | 2.39e6 | 2.06e6 | inactive |
| Gdap2 (GeneID 59173) | DRSC06790 | 4.72e5 | 4.64e5 | 2.13e6 | 1.88e6 | inactive |
| CG14879 (GeneID 41982) | DRSC15003 | 1.85e5 | 1.80e5 | 2.71e6 | 2.21e6 | inactive |
| CG14879 (GeneID 41982) | DRSC28083 | 4.55e5 | 4.10e5 | 1.52e6 | 1.25e6 | inactive |
| Ir47a (GeneID 36095) | DRSC06215 | 2.61e5 | 2.10e5 | 1.73e6 | 1.41e6 | inactive |
| alien + CG17906 | DRSC02641 | 2.32e5 | 2.22e5 | 1.83e6 | 1.72e6 | inactive |
| CG11841 (GeneID 43430) | DRSC14399 | 61522 | 57995 | 5.10e5 | 2.71e5 | inactive |
| CG11841 (GeneID 43430) | DRSC28256 | 3.15e5 | 4.97e5 | 1.09e6 | 1.43e6 | inactive |
| CG14915 (GeneID 34536) | DRSC02399 | 2.26e5 | 2.66e5 | 1.52e6 | 1.71e6 | inactive |
| CG14915 (GeneID 34536) | DRSC26295 | 3.35e5 | 2.96e5 | 6.77e5 | 7.07e5 | inactive |
| Ugt49B2 (GeneID 42538) | DRSC16049 | 3.56e5 | 4.12e5 | 4.31e6 | 4.57e6 | inactive |
| Ugt49B2 (GeneID 42538) | DRSC24548 | 7.16e5 | 8.86e5 | 6.54e5 | 1.06e6 | inactive |
| CG31680 (GeneID 318881) | DRSC21878 | 1.02e6 | 7.08e5 | 1.31e6 | 1.15e6 | inactive |
| Doc2 (GeneID 39038) | DRSC22716 | 7.45e5 | 7.00e5 | 1.88e6 | 1.85e6 | inactive |
| Doc2 (GeneID 39038) | DRSC25293 | 4.16e5 | 3.87e5 | 5.43e5 | 5.87e5 | inactive |
| CG1304 (GeneID 33074) | DRSC20494 | 3.19e5 | 2.21e5 | 9.16e5 | 7.14e5 | inactive |
| CG1304 (GeneID 33074) | DRSC25704 | 7.91e5 | 8.41e5 | 1.61e6 | 1.97e6 | inactive |
| HP6 (GeneID 33661) | DRSC00471 | 82727 | 1.02e5 | 7.27e5 | 8.85e5 | inactive |
| Bbd (GeneID 37314) | DRSC06709 | 73657 | 97738 | 1.30e6 | 1.16e6 | inactive |
| Ktch (GeneID 43681) | DRSC15094 | 1.77e5 | 1.55e5 | 2.17e6 | 2.51e6 | inactive |
| Ktch (GeneID 43681) | DRSC25973 | 3.52e5 | 2.59e5 | 5.74e5 | 4.84e5 | inactive |
| CG31183 (GeneID 41927) | DRSC14403 | 1.45e5 | 77561 | 2.45e6 | 2.05e6 | inactive |
| CG31183 (GeneID 41927) | DRSC15554 | 27964 | 31191 | 2.64e5 | 3.72e5 | inactive |
| CG31183 (GeneID 41927) | DRSC39297 | – | – | – | – | inactive |
| Pgam5 (GeneID 31143) | DRSC18551 | 1.09e5 | 58806 | 7.52e5 | 5.54e5 | inactive |
| Pex5 (GeneID 31141) | DRSC18552 | 3.36e5 | 3.91e5 | 3.96e6 | 3.42e6 | inactive |
| Pex5 (GeneID 31141) | DRSC26136 | 3.19e5 | 2.90e5 | 7.37e5 | 7.23e5 | inactive |
| CG18135 (GeneID 40073) | DRSC10295 | 62822 | 68979 | 6.10e5 | 4.44e5 | inactive |
